PubChem BioAssay AID504793 | Drosophila RNAi Screening Center – 2011
The screen tested about 23,000 reagents; below is a random part of those with a known target gene and a result. Over the whole deposit, 62 (0.27%) got an active call. 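Calls come from follow-up tests whose scores are not deposited, so confirmed genes may have low counts here; counts are not normalised per plate.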 Raw values vary from plate to plate and are shown uncorrected. The numbers tell different reagents against one gene apart. A plus sign joins genes that one reagent is predicted to hit.

Screen: 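Genes required for cells to halt at G2/M after double-strand DNA breaks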 (primary screen)
System: Drosophila S2R+ cells
Reagent: long dsRNA against Drosophila genes, about 0.25 µg dsRNA per well
Duration: 4 days of dsRNA, then 4 hours of drug before read-out
Challenge: doxorubicin 0.5 µM for 4 hours to cause double-strand breaks, in cells also given a low, harmless dose of dsRNA against nbs to sensitise the assay
Read-out: 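Mitotic index as the number of phospho-histone H3-positive cells in each well following doxorubicin, given as raw counts without normalisation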
Reading the numbers: mitotic cells: higher = more cells in mitosis, weaker G2 arrest
Call rule: 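a call needs confirmation in secondary tests, with other dsRNAs and a check of mitotic timing without damage, not just a high primary count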
Calls: active = confirmed in follow-up tests; inactive = not confirmed

CG12290 #1
- mitotic cells, replicate 1: 1
- outcome: inactive

CG12290 #2
- mitotic cells, replicate 1: 7
- outcome: inactive

Ppt2 #1
- mitotic cells, replicate 1: 1
- outcome: inactive

Ppt2 #2
- mitotic cells, replicate 1: 7
- outcome: inactive

CG12523 #1
- mitotic cells, replicate 1: 8
- outcome: inactive

CG12523 #2
- mitotic cells, replicate 1: 3
- outcome: inactive

ci
- mitotic cells, replicate 1: 8
- outcome: inactive

CR40450 + CG32767
- mitotic cells, replicate 1: 8
- outcome: inactive

CG33140 #1
- mitotic cells, replicate 1: 8
- outcome: inactive

CG33140 #2
- mitotic cells, replicate 1: 5
- outcome: inactive

senju
- mitotic cells, replicate 1: 4
- outcome: inactive

CG13239
- mitotic cells, replicate 1: 7
- outcome: inactive

CG18131
- mitotic cells, replicate 1: 15
- outcome: inactive

CG11044 #1
- mitotic cells, replicate 1: 6
- outcome: inactive

CG11044 #2
- mitotic cells, replicate 1: 6
- outcome: inactive

alpha-Est6
- mitotic cells, replicate 1: 14
- outcome: inactive

ACXB #1
- mitotic cells, replicate 1: 8
- outcome: inactive

ACXB #2
- mitotic cells, replicate 1: 7
- outcome: inactive

cni
- mitotic cells, replicate 1: 3
- outcome: inactive

CG42675 #1
- mitotic cells, replicate 1: 4
- outcome: inactive

CG42675 #2
- mitotic cells, replicate 1: 15
- outcome: inactive

CG42675 #3
- mitotic cells, replicate 1: 9
- outcome: inactive

CG42675 #4
- mitotic cells, replicate 1: 6
- outcome: inactive

Cc2d2a #1
- mitotic cells, replicate 1: 4
- outcome: inactive

Cc2d2a #2
- mitotic cells, replicate 1: 7
- outcome: inactive

Cc2d2a #3
- mitotic cells, replicate 1: 9
- outcome: inactive

CG14740
- mitotic cells, replicate 1: 4
- outcome: inactive

CG5359 + Spn85F
- mitotic cells, replicate 1: 3
- outcome: inactive

CG32137
- mitotic cells, replicate 1: 9
- outcome: inactive

Lint-O #1
- mitotic cells, replicate 1: 7
- outcome: inactive

Lint-O #2
- mitotic cells, replicate 1: 5
- outcome: inactive

zf30C
- mitotic cells, replicate 1: 6
- outcome: inactive

CG10465
- mitotic cells, replicate 1: 8
- outcome: inactive

CG14367
- mitotic cells, replicate 1: 4
- outcome: inactive

Sorted by “mitotic cells, replicate 1” (low to high): 4 of the entries above.
Cc2d2a #1
- mitotic cells, replicate 1: 4
- outcome: inactive

CG42675 #4
- mitotic cells, replicate 1: 6
- outcome: inactive

Cc2d2a #2
- mitotic cells, replicate 1: 7
- outcome: inactive

CG42675 #3
- mitotic cells, replicate 1: 9
- outcome: inactive
